# Reference: patent US20250129184A1, “TARGETED ANTICOAGULANT” (Northwestern University, priority 2016, published 2025)
# Test system: ePTFE graft in abdominal aorta
# Assay: rat abdominal aorta interposition model with ePTFE graft
# Assay type: in vivo, Sprague Dawley rats
# Conditions: two intravenous doses, 24 hours
# Description: During the development of embodiments of the technology provided herein, experiments were conducted to evaluate the in vivo performance of the heparin-CREKA relative to conventional clinically used heparin. In particular, heparin-CREKA was studied in a rat abdominal aorta interposition model. Briefly, male Sprague Dawley rats (200-500 g) were anesthetized by a ketamine/xylazine cocktail. The abdomen of the anesthetized rat was entered through a midline incision. The abdominal aorta was exposed (FIG. 7, Panel A), clamped in both proximal and distal regions using micro-vessel clips, and then excised between the clamps (FIG. 7, Panel B). A segment (e.g., approximately 1 cm in length; 1.524±0.05 mm in diameter) of expanded polytetrafluoroethylene (ePTFE) was used as a graft. The graft was connected to the abdominal aorta using an end-to-end anastomosis technique with interrupted stitches at each end (FIG. 7, Panel C). Following reperfusion of blood flow through the graft, one dose of anti-coagulant (heparin or heparin-CREKA) was given systemically via intravenous injection. The incision was then closed in layers. 24 hours after the initial implantation surgeries and immediately prior to sacrifice of the test […], a second dose of […] (heparin or heparin-CREKA) was administered systemically via intravenous injection. […]
substance,measurement,setting,value
heparin-CREKA: heparin covalently linked through a BMPH linker to the fibrin binding peptide Cys-Arg-Glu-Lys-Ala (CREKA) (heparin via BMPH linker),toluidine blue staining of the grafts (heparin detection),middle_2 graft piece,toluidine staining
same,"CREKA peptides at the graft site (avidin 594 nm staining, IVIS imaging)",proximal and middle_1 graft pieces,observed at the graft site
